# Taken from: PubChem BioAssay AID1259289 (Sanger Institute, 2017)
# Aim: 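Find kinases whose loss adds to targeted drugs in killing bowel cancer cells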 (primary screen)
# Cell system: human LS513 colorectal cancer cells
# Reagents: siRNA pool against human genes
# Treatment: anchor drug BYL719 at 1 µM, cetuximab at 5 µg/ml or trametinib at 10 nM, or DMSO vehicle alone; exposure time not given
# Measured: 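Cell survival as a fraction of the non-targeting pool, replicate means; robust z-score for silencing alone under DMSO; synergy score for each of BYL719, cetuximab and trametinib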
# Scale: robust z-score, siRNA alone (DMSO): higher = more viable cells; strongly negative means essential; viability with DMSO vs control: higher = more viable cells; synergy score with BYL719: higher = stronger combined killing with BYL719; synergy score with cetuximab: higher = stronger combined killing with cetuximab; synergy score with trametinib: higher = stronger combined killing with trametinib
# Call rule: 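Called essential when silencing alone under DMSO gives a robust z-score below -3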
# Meaning of the calls: active = essential (knock-down alone); inactive = not essential
# In all, the deposit lists 794 reagents; below is a part drawn at random. 16 of them (2%) were called active. 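Active marks cell loss from silencing alone; drug synergy shows only in the synergy scores, not the calls.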 A number with no mark means an inactive call. Viability is capped at 1. Reagent sequences are not shown. Not given: the amount of reagent, the time to read-out.
gene symbol,PubChem SID,"robust z-score, siRNA alone (DMSO)",viability with DMSO vs control (fraction of control),synergy score with BYL719,synergy score with cetuximab,synergy score with trametinib
PHKA2 (GeneID 5256),SID56479176,0.561,1,-0.109,-0.0293,0.0157
ADK (GeneID 132),SID56478860,0.561,1,-0.134,-0.0968,0.0566
PGK1 (GeneID 5230),SID56479130,0.561,1,-0.134,-0.0968,-0.00155
TTK (GeneID 7272),SID56478775,-0.0345,0.915,0.0582,0.0846,-0.0284
CDK7 (GeneID 1022),SID152150057,-0.0962,0.907,-0.0359,-0.0223,-0.0589
ULK3 (GeneID 25989),SID152148646,0.561,1,-0.134,-0.0968,-0.0264
WNK1 (GeneID 65125),SID152148140,0.561,1,0.0187,-0.0645,0.0773
MAPKAPK3 (GeneID 7867),SID56478946,0.561,1,0.0845,0.226,0.0743
SIK3 (GeneID 23387),SID135620886,0.561,1,-0.108,-0.0911,0.0376
ERN2 (GeneID 10595),SID135620900,0.317,0.965,-0.0129,-0.0552,0.0227
CAMK1 (GeneID 8536),SID56478929,-0.548,0.843,-0.0857,-0.115,0.0248
NEK3 (GeneID 4752),SID152154962,0.217,0.951,0.0728,0.00293,0.0318
CHD4 (GeneID 1108),SID152156048,-3.76 (active),0.387,0.0219,0.167,0.0156
SRGAP3 (GeneID 9901),SID152151814,0.561,1,-0.129,-0.0615,-0.0162
SRMS (GeneID 6725),SID56479047,-0.161,0.898,0.0514,0.0284,0.0427
ROR1 (GeneID 4919),SID135620631,0.561,1,0.0229,0.00369,0.0251
LIMK2 (GeneID 3985),SID152148517,0.561,1,0.00649,-0.0634,0.0555
SRPK1 (GeneID 6732),SID56478751,0.561,1,0.0223,-0.0968,0.064

3 consecutive records already listed, quoted:
gene symbol,PubChem SID,"robust z-score, siRNA alone (DMSO)",viability with DMSO vs control (fraction of control),synergy score with BYL719,synergy score with cetuximab,synergy score with trametinib
CAMK1 (GeneID 8536),SID56478929,-0.548,0.843,-0.0857,-0.115,0.0248
NEK3 (GeneID 4752),SID152154962,0.217,0.951,0.0728,0.00293,0.0318
CHD4 (GeneID 1108),SID152156048,-3.76 (active),0.387,0.0219,0.167,0.0156

More records follow.
gene symbol,PubChem SID,"robust z-score, siRNA alone (DMSO)",viability with DMSO vs control (fraction of control),synergy score with BYL719,synergy score with cetuximab,synergy score with trametinib
PIP5K1A (GeneID 8394),SID56478868,-0.87,0.797,-0.0896,-0.0914,0.0343
NME3 (GeneID 4832),SID135621244,0.561,1,-0.0703,-0.0777,-0.0875
DAPK3 (GeneID 1613),SID56478935,0.561,1,-0.0102,-0.0968,-0.00962
MERTK (GeneID 10461),SID135620626,0.521,0.994,-0.022,0.119,0.00321
PRKY (GeneID 5616),SID135620861,-1.11,0.763,0.0457,0.0329,-0.00963
CDKL1 (GeneID 8814),SID56478790,-0.527,0.846,0.0567,0.125,0.00125
IPPK (GeneID 64768),SID152153893,-0.678,0.824,0.171,0.172,0.0411
TAOK1 (GeneID 57551),SID152151735,-0.0431,0.914,-0.043,-0.0498,-0.0615
PSKH1 (GeneID 5681),SID135620975,0.561,1,-0.018,-0.0968,0.0182
MAGI2 (GeneID 9863),SID135622325,0.561,1,-0.00628,-0.0968,0.0817
CASP8 (GeneID 841),SID135620682,0.561,1,-0.0338,-0.0968,-0.061
PFKL (GeneID 5211),SID56479167,0.561,1,-0.134,-0.0968,0.0181
AK5 (GeneID 26289),SID56478914,0.561,1,0.0161,-0.022,0.0133
MAP3K1 (GeneID 4214),SID152150888,0.561,1,-0.134,-0.0968,-0.000482
NLK (GeneID 51701),SID56478865,-0.25,0.885,0.105,0.173,0.0504
IP6K2 (GeneID 51447),SID56479106,0.561,1,-0.134,-0.0968,0.0861
CLK3 (GeneID 1198),SID56478875,-0.054,0.913,0.125,-0.0421,0.00842
EPHA8 (GeneID 2046),SID135620615,0.561,1,-0.0217,-0.0286,-0.106
DYRK1B (GeneID 9149),SID56478878,0.183,0.946,0.0239,0.168,0.057
ITSN1 (GeneID 6453),SID135621555,-2.1,0.622,0.0391,-0.0675,-0.0176
SRP72 (GeneID 6731),SID135623816,-2.31,0.592,-0.187,-0.0429,-0.0769
CSNK1G1 (GeneID 53944),SID152156369,0.561,1,-0.07,-0.0634,-0.0751
DLG2 (GeneID 1740),SID152155470,0.561,1,-0.017,-0.0968,-0.108
HK1 (GeneID 3098),SID56479165,0.561,1,-0.134,-0.0968,0.0218
INSR (GeneID 3643),SID152149459,0.387,0.975,-0.0321,-0.0774,0.000392
RPS6KB1 (GeneID 6198),SID152147142,-1.96,0.642,0.0177,0.0756,-0.0317
PI4K2B (GeneID 55300),SID56479132,0.561,1,-0.134,-0.0968,0.0214
PNKP (GeneID 11284),SID56479144,-0.312,0.876,-0.0535,-0.00936,0.0549
STK10 (GeneID 6793),SID56478780,-0.634,0.83,0.227,0.0714,0.044
LMTK3 (GeneID 114783),SID152150242,0.561,1,-0.0238,-0.0217,0.0307
PLK2 (GeneID 10769),SID56478648,-0.106,0.905,0.0246,0.0325,0.00873
TEK (GeneID 7010),SID152152932,0.561,1,-0.134,-0.0968,0.0195
